Construct, isoform or probe ends are uncertain for at least one entry. For some of these results: No signal at the amounts used counts as a negative. Tags and fusion partners may be left off the protein sequences shown.
Legend:
[1] = target: T1, TR4 (NR2C2) (Homo sapiens) (UniProt P49116); assay: competition with a labelled probe; conditions: excess mutant TR4RE did not compete for TR4-TR4RE complex; protein translated in vitro; protein details: expressed from pCMX-TR4, full length human; variant of CD36 promoter TR4RE
T1 sequence: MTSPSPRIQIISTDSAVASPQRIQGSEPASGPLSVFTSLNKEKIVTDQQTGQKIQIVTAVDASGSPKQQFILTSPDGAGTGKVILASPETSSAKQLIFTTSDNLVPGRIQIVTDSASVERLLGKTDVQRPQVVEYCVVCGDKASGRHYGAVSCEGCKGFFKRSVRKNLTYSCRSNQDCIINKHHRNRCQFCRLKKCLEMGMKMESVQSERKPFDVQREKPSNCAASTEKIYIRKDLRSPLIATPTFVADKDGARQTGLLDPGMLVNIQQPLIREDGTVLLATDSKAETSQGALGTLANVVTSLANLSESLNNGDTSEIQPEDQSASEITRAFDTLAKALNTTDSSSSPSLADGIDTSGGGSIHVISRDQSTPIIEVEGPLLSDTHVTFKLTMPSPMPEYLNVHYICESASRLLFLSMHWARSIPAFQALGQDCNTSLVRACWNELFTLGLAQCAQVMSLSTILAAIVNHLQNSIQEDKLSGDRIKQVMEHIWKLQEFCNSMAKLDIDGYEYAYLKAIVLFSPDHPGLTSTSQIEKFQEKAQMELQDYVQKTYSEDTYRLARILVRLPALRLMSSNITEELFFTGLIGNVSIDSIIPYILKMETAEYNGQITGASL

[2] = target: T1, TR4 (NR2C2) (Homo sapiens); assay: activity in cells; conditions: protein in cells, protein details: pCMX-TR4 transfected in CV-1, only the site is given
[3] = target: T1, TR4 (NR2C2) (Homo sapiens); assay: EMSA; conditions: protein translated in vitro; protein details: expressed from pCMX-TR4, full length human; label: 32P

Sequence | binding result [1] | activity on this sequence ([2]; mutant CD36 promoter luciferase not activated by TR4, variant of CD36 promoter TR4RE) | activity on this sequence ([2]; 300-bp CD36 promoter luciferase in CV-1, dose-dependent activation) | binding result [3]
TGAAACTGACTT (double strand) [mutant TR4RE] | no binding | not active |  | 
TGGCCTCTGACTT (double strand) [CD36 promoter TR4RE] |  |  | active | binds
